The list shows a part of the results.
Assays:
Assay in all cases: log2 fold change, soluble protein after heating vs DMSO (PISA); higher = thermal stabilisation; K562 lysate, 10 uM; active = over 0.2 and 3.5 SD of the protein, either way, in both replicates (recomputed)
nilotinib = compound: Cc1cn(-c2cc(NC(=O)c3ccc(C)c(Nc4nccc(-c5cccnc5)n4)c3)cc(C(F)(F)F)c2)cn1 [nilotinib]
How it was run: (§1)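 Log-two fold change in thermal stability relative to solvent controls is reported from duplicates. For each sample, crude K562 extract from dounce-homogenised pellets in PBS pH 7.4 with 1 mM MgCl2, at 1 mg/mL protein, was treated with 10 μM compound for 30 min. Aliquots heated for 3 min across 48°C-58°C were pooled, brought to 0.5% NP-40 at 4°C and cleared at 21,000xg for 90 min. The supernatant was quantified by TMTpro 16plex LC-MS/MS with channel sums equalised.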

Sequences of proteins named here, by UniProt entry; tags and fusion partners are left off. A change or cut given only in a name is not applied to a line headed by its entry.
UniProt Q96EN9: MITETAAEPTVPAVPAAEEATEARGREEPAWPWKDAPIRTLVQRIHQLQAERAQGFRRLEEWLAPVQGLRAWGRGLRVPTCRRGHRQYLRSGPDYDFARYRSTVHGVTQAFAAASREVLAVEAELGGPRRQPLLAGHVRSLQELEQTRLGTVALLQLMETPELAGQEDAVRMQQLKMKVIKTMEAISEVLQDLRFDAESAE
UniProt Q02833: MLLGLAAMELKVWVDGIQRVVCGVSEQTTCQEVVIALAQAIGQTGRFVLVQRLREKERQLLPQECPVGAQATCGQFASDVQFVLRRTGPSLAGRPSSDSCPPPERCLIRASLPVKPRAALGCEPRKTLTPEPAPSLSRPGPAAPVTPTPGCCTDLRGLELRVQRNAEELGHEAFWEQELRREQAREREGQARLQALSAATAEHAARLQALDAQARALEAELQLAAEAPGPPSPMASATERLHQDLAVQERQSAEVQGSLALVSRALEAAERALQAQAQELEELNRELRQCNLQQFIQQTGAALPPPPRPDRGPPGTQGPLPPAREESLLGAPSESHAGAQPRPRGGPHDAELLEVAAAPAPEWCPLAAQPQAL
UniProt Q09028, whole entry, looked up: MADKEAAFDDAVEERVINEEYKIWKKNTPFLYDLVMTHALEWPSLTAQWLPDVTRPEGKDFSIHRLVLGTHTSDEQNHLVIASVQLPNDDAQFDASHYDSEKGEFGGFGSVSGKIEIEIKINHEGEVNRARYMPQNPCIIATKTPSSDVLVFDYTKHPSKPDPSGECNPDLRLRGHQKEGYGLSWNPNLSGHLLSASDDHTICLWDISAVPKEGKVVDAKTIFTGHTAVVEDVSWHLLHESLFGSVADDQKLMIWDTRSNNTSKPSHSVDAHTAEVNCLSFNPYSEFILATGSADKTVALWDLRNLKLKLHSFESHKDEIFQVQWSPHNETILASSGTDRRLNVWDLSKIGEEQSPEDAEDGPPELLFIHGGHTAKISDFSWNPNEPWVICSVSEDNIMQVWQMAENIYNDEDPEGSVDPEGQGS
UniProt Q7LDG7: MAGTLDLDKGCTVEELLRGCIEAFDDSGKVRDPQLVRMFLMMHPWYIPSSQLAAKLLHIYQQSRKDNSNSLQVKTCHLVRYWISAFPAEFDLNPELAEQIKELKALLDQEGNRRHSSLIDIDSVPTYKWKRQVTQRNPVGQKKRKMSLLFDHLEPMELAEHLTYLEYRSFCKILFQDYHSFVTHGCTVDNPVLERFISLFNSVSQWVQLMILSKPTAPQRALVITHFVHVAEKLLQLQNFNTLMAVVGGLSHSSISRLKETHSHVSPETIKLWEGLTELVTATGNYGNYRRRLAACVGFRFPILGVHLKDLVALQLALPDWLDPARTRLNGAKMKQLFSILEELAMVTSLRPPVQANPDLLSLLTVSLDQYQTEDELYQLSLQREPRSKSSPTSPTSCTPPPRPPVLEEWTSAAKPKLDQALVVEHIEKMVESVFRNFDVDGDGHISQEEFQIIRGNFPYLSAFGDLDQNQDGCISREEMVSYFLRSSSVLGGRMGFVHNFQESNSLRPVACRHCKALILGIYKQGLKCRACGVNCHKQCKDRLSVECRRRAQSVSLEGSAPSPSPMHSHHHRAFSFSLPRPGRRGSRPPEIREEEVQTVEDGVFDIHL
UniProt O75884: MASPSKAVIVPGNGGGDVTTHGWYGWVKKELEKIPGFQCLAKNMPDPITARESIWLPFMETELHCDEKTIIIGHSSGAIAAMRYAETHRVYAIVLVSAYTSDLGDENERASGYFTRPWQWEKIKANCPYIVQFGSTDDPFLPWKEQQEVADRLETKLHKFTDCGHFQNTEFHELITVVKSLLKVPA
UniProt Q9HBD1: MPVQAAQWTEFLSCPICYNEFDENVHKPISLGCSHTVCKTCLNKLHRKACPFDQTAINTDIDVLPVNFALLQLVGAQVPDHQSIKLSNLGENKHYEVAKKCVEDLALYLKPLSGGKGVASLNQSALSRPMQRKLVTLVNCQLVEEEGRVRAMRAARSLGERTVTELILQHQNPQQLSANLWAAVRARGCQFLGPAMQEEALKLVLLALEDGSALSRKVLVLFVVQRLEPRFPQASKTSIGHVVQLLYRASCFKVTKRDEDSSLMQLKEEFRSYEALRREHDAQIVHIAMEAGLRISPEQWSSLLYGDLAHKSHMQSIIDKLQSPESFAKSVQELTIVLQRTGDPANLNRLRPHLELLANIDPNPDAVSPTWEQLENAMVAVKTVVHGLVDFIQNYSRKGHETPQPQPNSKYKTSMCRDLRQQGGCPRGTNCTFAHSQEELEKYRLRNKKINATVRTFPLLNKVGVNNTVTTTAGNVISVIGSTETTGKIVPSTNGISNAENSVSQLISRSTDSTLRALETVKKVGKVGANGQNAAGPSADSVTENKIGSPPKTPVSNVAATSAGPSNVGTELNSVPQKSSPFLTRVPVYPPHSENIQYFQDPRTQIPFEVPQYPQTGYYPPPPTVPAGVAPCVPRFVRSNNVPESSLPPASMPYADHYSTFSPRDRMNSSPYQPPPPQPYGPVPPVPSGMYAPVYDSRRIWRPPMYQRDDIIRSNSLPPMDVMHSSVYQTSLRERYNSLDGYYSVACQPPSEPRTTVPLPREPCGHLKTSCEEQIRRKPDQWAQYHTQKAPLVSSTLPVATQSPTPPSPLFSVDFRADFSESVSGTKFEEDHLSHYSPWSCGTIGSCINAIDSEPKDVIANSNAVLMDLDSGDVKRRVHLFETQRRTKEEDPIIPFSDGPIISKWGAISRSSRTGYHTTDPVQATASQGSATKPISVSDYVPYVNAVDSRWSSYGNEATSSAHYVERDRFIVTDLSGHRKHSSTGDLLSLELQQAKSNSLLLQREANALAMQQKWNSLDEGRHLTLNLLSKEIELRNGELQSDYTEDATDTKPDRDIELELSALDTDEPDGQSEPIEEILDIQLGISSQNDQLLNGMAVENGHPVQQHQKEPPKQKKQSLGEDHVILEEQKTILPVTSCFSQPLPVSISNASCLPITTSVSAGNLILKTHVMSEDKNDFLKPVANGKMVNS
UniProt Q9HCM1: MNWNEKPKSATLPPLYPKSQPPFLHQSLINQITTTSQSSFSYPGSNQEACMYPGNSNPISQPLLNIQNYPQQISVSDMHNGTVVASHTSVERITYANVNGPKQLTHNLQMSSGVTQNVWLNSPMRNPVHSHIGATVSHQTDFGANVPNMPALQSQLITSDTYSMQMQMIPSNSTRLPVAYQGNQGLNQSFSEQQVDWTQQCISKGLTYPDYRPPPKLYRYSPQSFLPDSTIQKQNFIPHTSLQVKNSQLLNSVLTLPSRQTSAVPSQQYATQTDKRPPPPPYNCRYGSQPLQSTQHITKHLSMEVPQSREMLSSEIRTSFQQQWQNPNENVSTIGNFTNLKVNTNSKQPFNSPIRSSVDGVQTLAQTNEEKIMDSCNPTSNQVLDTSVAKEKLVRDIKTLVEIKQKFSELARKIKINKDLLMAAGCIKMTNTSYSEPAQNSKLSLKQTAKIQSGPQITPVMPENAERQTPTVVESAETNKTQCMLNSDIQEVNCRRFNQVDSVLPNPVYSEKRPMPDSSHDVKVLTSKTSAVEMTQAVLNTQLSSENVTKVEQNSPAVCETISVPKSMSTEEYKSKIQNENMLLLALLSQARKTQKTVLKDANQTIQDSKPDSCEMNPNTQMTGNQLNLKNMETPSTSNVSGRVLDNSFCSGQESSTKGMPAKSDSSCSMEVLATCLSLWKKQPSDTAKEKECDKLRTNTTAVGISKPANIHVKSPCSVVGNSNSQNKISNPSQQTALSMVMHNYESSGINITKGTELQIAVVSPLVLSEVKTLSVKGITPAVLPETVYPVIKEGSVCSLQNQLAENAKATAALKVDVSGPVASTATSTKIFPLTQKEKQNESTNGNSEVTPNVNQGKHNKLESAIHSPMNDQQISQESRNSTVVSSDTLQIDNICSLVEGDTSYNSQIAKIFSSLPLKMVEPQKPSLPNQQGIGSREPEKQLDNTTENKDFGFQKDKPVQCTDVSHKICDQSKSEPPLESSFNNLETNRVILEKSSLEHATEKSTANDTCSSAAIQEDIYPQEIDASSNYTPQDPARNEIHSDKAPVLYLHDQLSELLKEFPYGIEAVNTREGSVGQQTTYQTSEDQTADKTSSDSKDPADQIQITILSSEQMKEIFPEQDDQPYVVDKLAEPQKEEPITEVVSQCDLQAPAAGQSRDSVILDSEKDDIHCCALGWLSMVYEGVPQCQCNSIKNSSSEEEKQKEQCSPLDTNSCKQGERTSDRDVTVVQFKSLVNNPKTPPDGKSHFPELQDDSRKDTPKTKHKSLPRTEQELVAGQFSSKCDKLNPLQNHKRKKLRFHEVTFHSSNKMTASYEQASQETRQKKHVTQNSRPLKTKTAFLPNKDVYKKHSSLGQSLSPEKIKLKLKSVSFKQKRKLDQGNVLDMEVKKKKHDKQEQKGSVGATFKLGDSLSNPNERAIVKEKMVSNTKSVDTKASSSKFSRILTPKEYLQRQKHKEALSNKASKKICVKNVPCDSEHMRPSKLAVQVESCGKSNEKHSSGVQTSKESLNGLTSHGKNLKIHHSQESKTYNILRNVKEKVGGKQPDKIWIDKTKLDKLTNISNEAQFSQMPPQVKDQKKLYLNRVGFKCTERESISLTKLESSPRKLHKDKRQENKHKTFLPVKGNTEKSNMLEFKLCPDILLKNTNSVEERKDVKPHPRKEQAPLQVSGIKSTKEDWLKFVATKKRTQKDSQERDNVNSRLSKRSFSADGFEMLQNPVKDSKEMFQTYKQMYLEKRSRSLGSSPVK
UniProt Q8TEB9: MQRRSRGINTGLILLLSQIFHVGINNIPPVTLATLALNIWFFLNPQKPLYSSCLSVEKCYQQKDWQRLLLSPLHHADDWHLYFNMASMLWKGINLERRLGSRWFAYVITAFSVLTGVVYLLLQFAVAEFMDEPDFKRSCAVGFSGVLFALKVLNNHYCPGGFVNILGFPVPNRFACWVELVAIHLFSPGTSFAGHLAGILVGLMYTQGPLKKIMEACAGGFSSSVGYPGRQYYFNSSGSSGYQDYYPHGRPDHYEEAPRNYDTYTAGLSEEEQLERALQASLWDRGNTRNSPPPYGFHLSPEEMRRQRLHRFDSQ
UniProt Q9Y3P4: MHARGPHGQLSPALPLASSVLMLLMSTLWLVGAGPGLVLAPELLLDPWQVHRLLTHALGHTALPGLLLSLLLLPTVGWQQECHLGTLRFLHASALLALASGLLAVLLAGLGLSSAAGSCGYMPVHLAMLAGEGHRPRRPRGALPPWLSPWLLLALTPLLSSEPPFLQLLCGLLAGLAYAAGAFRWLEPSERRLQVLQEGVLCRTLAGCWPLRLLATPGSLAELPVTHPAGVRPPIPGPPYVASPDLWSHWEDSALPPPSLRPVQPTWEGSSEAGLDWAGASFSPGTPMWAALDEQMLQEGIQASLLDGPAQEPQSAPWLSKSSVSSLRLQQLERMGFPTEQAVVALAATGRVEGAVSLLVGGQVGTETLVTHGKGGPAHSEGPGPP
UniProt Q6NUM9: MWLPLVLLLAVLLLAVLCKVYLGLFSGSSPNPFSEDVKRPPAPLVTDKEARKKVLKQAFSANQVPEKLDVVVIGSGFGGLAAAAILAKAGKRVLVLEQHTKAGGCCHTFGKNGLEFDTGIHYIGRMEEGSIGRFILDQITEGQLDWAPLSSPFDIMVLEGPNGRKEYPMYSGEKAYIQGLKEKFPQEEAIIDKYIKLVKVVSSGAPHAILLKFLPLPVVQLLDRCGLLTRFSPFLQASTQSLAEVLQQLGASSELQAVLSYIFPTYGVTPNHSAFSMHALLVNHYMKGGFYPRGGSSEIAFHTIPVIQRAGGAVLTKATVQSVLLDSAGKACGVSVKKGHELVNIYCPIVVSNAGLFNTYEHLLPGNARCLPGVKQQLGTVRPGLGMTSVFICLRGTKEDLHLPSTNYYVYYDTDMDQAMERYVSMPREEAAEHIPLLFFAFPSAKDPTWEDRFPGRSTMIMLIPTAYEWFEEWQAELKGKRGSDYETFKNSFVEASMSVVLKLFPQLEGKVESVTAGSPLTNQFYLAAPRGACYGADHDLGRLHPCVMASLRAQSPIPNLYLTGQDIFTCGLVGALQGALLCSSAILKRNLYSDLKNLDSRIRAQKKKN
UniProt Q9H477: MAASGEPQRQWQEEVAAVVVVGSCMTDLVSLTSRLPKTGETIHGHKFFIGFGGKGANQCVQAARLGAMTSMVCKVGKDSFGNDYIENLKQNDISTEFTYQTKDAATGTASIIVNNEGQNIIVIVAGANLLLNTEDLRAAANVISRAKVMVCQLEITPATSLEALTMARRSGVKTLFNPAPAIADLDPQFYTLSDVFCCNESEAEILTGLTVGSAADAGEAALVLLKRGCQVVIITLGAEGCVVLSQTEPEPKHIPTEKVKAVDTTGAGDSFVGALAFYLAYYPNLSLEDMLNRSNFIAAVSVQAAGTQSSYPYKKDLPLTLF
UniProt Q9H4X1: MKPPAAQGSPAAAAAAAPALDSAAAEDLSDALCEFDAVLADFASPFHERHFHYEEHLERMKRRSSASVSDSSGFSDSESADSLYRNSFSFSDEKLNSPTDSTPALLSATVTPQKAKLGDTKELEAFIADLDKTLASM

[1] = compound: Cc1nc(Nc2n[nH]c3c2CN(C(=O)N[C@H](CN(C)C)c2ccccc2)C3(C)C)c2sccc2n1
How it was run: as §1

[2] = compound: Cc1ncc(-c2ccnc(Nc3ccc(S(C)(=O)=O)cc3)n2)n1C(C)C
How it was run: as §1

quisinostat = compound: Cn1cc(CNCC2CCN(c3ncc(C(=O)NO)cn3)CC2)c2ccccc21 [quisinostat]
How it was run: as §1

tipifarnib = compound: Cn1cncc1[C@@](N)(c1ccc(Cl)cc1)c1ccc2c(c1)c(-c1cccc(Cl)c1)cc(=O)n2C [tipifarnib]
How it was run: as §1

[3] = compound: NC(=O)Nc1cc(-c2cccc(F)c2)sc1C(=O)N[C@H]1CCCNC1
How it was run: as §1

[4] = compound: NC(=O)c1cnc(N[C@@H]2CCCC[C@@H]2N)nc1Nc1cccc(-n2nccn2)c1
How it was run: as §1

[5] = compound: NC1(c2ccc(-c3nc4ccn5c(=O)[nH]nc5c4cc3-c3ccccc3)cc2)CCC1
How it was run: as §1

[6] = compound: NCC(=O)Nc1ccc(-n2nc(C(F)(F)F)cc2-c2ccc3c(ccc4ccccc43)c2)cc1
How it was run: as §1

vorinostat = compound: O=C(CCCCCCC(=O)Nc1ccccc1)NO [vorinostat]
How it was run: as §1

silmitasertib = compound: O=C(O)c1ccc2c(c1)nc(Nc1cccc(Cl)c1)c1ccncc12 [silmitasertib]
How it was run: as §1

[7] = compound: O=C1NC(=O)C(c2cnc3ccccn23)=C1c1cn2c3c(cc(F)cc13)CN(C(=O)N1CCCCC1)CC2
How it was run: as §1

dasatinib = compound: Cc1nc(Nc2ncc(C(=O)Nc3c(C)cccc3Cl)s2)cc(N2CCN(CCO)CC2)n1 [dasatinib]
How it was run: as §1

[8] = compound: Cn1cc(-c2ccc3c(c2)CCN3C(=O)Cc2cccc(C(F)(F)F)c2)c2c(N)ncnc21
How it was run: as §1

entospletinib = compound: c1cn2cc(-c3ccc4cn[nH]c4c3)nc(Nc3ccc(N4CCOCC4)cc3)c2n1 [entospletinib]
How it was run: as §1

Measured: log2 fold change

REEP3 (UniProt Q6NUK4)
inactive: nilotinib 0.1 | [1] -0.031 | [2] 0.115 | quisinostat 0.069 | tipifarnib -0.126 | [3] 0 | [4] 0.018 | [5] 0 | [6] 0.02 | vorinostat 0.178 | silmitasertib 0.028 | [7] 0.01

RBM45 (UniProt Q8IUH3)
inactive: nilotinib 0.051 | [1] -0.077 | [2] 0.143 | quisinostat -0.145 | tipifarnib -0.012 | [3] -0.025 | [4] 0.061 | [7] 0.093

REXO5 (UniProt Q96IC2)
inactive: nilotinib 0.052 | [1] -0.057 | dasatinib -0.009 | [2] -0.095 | [8] 0.087 | tipifarnib 0.027 | [5] -0.087 | [6] 0.021 | vorinostat -0.137 | silmitasertib 0.068 | entospletinib -0.023

RFC5 (UniProt P40937)
active: vorinostat -0.492
inactive: nilotinib 0.005 | [1] 0.001 | dasatinib -0.06 | [2] -0.005 | [8] 0.025 | quisinostat -0.078 | tipifarnib -0.023 | [3] 0.074 | [4] 0.025 | [5] -0.02 | [6] 0.019 | silmitasertib 0.031 | [7] 0.019 | entospletinib 0.014

RFLNB (UniProt Q8N5W9)
inactive: nilotinib 0.027 | [1] 0.307 | dasatinib 0.034 | [2] 0.047 | [8] -0.144 | quisinostat 0.027 | tipifarnib 0.081 | [3] 0.022 | [4] -0.117 | [5] -0.013 | [6] -0.031 | vorinostat 0.081 | silmitasertib -0.058 | [7] -0.002 | entospletinib 0.019

REX1BD (UniProt Q96EN9)
inactive: nilotinib 0.262 | [1] -0.073 | dasatinib 0.124 | [2] 0.16 | [8] -0.049 | quisinostat 0.081 | tipifarnib 0.107 | [3] 0.168 | [5] -0.014 | vorinostat -0.139 | silmitasertib 0.028 | [7] 0.024 | entospletinib -0.265

RBM41 (UniProt Q96IZ5)
inactive: nilotinib -0.151 | [1] 0.065 | [2] -0.02 | tipifarnib 0.045

RASSF7 (UniProt Q02833)
inactive: nilotinib -0.117 | [1] -0.004 | [2] 0.054 | quisinostat 0.034 | tipifarnib -0.015 | [3] 0.037 | [7] -0.095

RBBP4 isoform 4 (UniProt Q09028)
inactive: nilotinib -0.011 | [1] 0.026 | [2] 0.034 | tipifarnib 0.043 | [4] -0.058

RHD (UniProt Q02161)
inactive: dasatinib -0.05 | [8] 0.061

RELCH (UniProt Q9P260)
inactive: dasatinib -0.01 | [8] -0.135 | quisinostat -0.034 | [3] 0.06 | [4] 0.169 | [6] -0.056 | [7] 0.129

RFX2 (UniProt P48378)
inactive: dasatinib -0.013 | [8] 0.173 | quisinostat 0.109 | [3] -0.003 | [4] 0.018 | [7] 0.028

RASGRP2 isoform 2 (UniProt Q7LDG7)
inactive: nilotinib -0.056 | [1] 0.118 | [2] 0.03 | tipifarnib -0.011

RBP4 (UniProt P02753)
inactive: quisinostat 0.042 | [3] 0.174 | [7] -0.047

REST (UniProt Q13127)
inactive: dasatinib -0.006 | [8] 0.055 | quisinostat -0.012 | [3] -0.083 | [4] 0.012 | [5] -0.068 | [6] -0.047 | vorinostat 0.015 | silmitasertib -0.458 | [7] 0.063

RASSF3 (UniProt Q86WH2)
inactive: quisinostat 0.001 | [3] 0.124 | [4] 0.134 | [7] -0.017

RBIS (UniProt Q8N0T1)
inactive: dasatinib 0.02 | [8] 0.001 | quisinostat -0.115 | [3] -0.016 | [5] -0.007 | [6] -0.027 | vorinostat 0.117 | silmitasertib -0.003 | [7] -0.031 | entospletinib 0.014

RBBP9 (UniProt O75884)
inactive: quisinostat 0 | [3] -0.02 | [5] 0.062 | [6] 0.011 | vorinostat 0.064 | silmitasertib -0.068 | [7] 0.05

RC3H2 (UniProt Q9HBD1)
inactive: dasatinib -0.001 | [8] -0.003 | quisinostat -0.036 | [3] 0.001 | [4] 0.172 | [6] -0.109 | [7] 0.03 | entospletinib -0.264

RESF1 (UniProt Q9HCM1)
inactive: dasatinib -0.055 | [8] -0.089 | quisinostat 0.177 | [3] -0.041 | [7] -0.045 | entospletinib -0.074

RELL1 (UniProt Q8IUW5)
inactive: quisinostat -0.162 | [3] 0 | [5] -0.103 | vorinostat -0.165 | silmitasertib -0.175 | [7] 0.095

RHBDD1 (UniProt Q8TEB9)
inactive: [4] 0.103 | [6] -0.162 | entospletinib 0.036

RBM15 (UniProt Q96T37)
inactive: dasatinib -0.158 | [8] -0.088 | quisinostat -0.02 | [3] 0.041 | [4] -0.002 | [5] 0.083 | [6] 0.045 | vorinostat -0.015 | silmitasertib 0.038 | [7] 0.042 | entospletinib 0.048

RHBDD3 (UniProt Q9Y3P4)
inactive: quisinostat 0.007 | [3] -0.179 | [7] 0.008

3 neighbouring entries from above, quoted:
RESF1 (UniProt Q9HCM1)
inactive: dasatinib -0.055 | [8] -0.089 | quisinostat 0.177 | [3] -0.041 | [7] -0.045 | entospletinib -0.074

RELL1 (UniProt Q8IUW5)
inactive: quisinostat -0.162 | [3] 0 | [5] -0.103 | vorinostat -0.165 | silmitasertib -0.175 | [7] 0.095

RHBDD1 (UniProt Q8TEB9)
inactive: [4] 0.103 | [6] -0.162 | entospletinib 0.036

Next entries

RHBDD2 isoform 2 (UniProt Q6NTF9)
inactive: [5] -0.054 | vorinostat 0.204 | silmitasertib -0.36

RBBP4 isoform 2 (UniProt Q09028)
inactive: [4] 0.034

RAVER2 (UniProt Q9HCJ3)
inactive: dasatinib -0.106 | [8] -0.148 | quisinostat 0.064 | [3] -0.001 | [5] 0.267 | vorinostat 0.101 | silmitasertib -0.038 | [7] -0.082 | entospletinib -0.081

RBM12B (UniProt Q8IXT5)
inactive: nilotinib -0.025 | [1] 0.002 | [2] 0.07 | tipifarnib 0.113

RETSAT (UniProt Q6NUM9)
active: quisinostat -0.485
inactive: dasatinib -0.1 | [8] -0.058 | [3] 0.152 | [4] -0.005 | [5] -0.051 | [6] -0.087 | vorinostat 0.17 | silmitasertib -0.016 | [7] 0.058 | entospletinib 0.036

RBKS (UniProt Q9H477)
inactive: dasatinib -0.294 | [8] 0.184

RBM4 isoform 3 (UniProt Q9BWF3)
inactive: quisinostat -0.094 | [3] 0.06 | [7] -0.099

RFXANK (UniProt O14593)
inactive: dasatinib -0.026 | [8] -0.001 | quisinostat -0.082 | [3] 0.096 | [4] -0.003 | [5] 0.022 | [6] -0.087 | vorinostat -0.092 | silmitasertib 0.019 | [7] 0.02 | entospletinib -0.052

RGPD6 (UniProt H7BZ48)
inactive: quisinostat -0.022 | [3] 0.007 | [7] 0.064

RBM4B (UniProt Q9BQ04)
inactive: quisinostat -0.097 | [3] 0.176 | [7] -0.033

RGCC (UniProt Q9H4X1)
inactive: [5] -0.072 | [6] -0.017 | vorinostat 0.401 | silmitasertib 0.243

RBM48 isoform 2 (UniProt Q5RL73)
inactive: dasatinib 0.033 | [8] -0.025 | quisinostat 0.003 | [3] 0.06 | [5] 0.027 | [6] -0.093 | vorinostat -0.05 | silmitasertib -0.056 | [7] -0.037 | entospletinib -0.004

RBMY1E (UniProt A6NEQ0)
inactive: dasatinib 0.079 | [8] 0.009 | quisinostat -0.242 | [3] 0.013 | [4] 0.077 | [6] 0.073 | [7] -0.02 | entospletinib 0.075

RBFOX2 isoform 8 (UniProt O43251)
inactive: dasatinib 0.119 | [8] -0.167 | quisinostat -0.217 | [3] 0.323 | [4] -0.026 | [5] -0.064 | vorinostat -0.12 | silmitasertib 0.116 | [7] 0.168 | entospletinib -0.207

RBM18 (UniProt Q96H35)
inactive: nilotinib 0.035 | [1] 0.071 | [2] -0.251 | tipifarnib 0.028 | [6] 0.06 | entospletinib -0.039

RBMXL1 (UniProt Q96E39)
inactive: dasatinib -0.12 | [8] 0.028 | quisinostat 0.009 | [3] 0.096 | [6] -0.012 | [7] 0.014 | entospletinib 0.101

RBMX2 (UniProt Q9Y388)
inactive: dasatinib 0.068 | [8] -0.133 | [4] -0.02 | [5] -0.004 | [6] -0.009 | vorinostat 0.017 | silmitasertib 0.088

— the supplement of paper PMC10849652
